Data on 69 targets can be found in the supplement of paper PMC10060354, “Discovery of a small molecule ligand of FRS2 that inhibits invasion and tumor growth” (Cellular Oncology, 2022).

Sequences of proteins named here, by UniProt entry; tags and fusion partners are left off. A change or cut given only in a name is not applied to a line headed by its entry.
UniProt Q15139: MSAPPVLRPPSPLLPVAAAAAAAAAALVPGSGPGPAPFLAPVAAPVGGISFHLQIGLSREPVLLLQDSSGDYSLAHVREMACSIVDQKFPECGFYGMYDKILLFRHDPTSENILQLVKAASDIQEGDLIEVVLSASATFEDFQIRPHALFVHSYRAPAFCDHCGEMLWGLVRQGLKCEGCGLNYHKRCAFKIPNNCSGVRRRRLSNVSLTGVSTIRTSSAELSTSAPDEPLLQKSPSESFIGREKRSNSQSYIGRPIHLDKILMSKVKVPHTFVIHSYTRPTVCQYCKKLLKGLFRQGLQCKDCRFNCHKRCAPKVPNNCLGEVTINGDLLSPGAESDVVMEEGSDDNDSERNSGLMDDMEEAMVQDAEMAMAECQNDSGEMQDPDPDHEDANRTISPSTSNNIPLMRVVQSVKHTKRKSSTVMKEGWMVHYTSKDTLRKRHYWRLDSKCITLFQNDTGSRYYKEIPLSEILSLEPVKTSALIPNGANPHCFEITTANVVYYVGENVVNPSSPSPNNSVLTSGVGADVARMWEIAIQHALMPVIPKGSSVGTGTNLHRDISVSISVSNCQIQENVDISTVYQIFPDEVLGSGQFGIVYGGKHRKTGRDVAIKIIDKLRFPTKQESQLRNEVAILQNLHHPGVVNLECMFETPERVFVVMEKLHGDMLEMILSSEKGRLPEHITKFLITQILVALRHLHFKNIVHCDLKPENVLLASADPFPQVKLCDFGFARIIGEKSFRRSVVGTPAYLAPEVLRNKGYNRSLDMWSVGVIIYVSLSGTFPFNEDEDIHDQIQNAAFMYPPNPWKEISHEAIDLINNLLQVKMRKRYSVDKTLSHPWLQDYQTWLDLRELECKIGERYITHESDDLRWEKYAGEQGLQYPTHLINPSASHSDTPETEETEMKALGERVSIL
UniProt Q92599: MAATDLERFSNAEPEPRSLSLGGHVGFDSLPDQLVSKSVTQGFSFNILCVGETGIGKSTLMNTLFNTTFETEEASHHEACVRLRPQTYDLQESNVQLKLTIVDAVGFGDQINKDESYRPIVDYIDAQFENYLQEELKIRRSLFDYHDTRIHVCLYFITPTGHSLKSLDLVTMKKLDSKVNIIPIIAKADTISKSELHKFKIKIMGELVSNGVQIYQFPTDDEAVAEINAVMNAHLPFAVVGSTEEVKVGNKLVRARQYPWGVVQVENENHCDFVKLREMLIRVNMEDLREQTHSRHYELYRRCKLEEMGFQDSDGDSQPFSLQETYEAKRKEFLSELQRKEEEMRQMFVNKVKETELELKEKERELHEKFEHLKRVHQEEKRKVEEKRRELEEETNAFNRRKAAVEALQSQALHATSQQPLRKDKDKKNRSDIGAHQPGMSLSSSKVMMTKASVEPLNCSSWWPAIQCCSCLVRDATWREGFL
UniProt Q8TF68: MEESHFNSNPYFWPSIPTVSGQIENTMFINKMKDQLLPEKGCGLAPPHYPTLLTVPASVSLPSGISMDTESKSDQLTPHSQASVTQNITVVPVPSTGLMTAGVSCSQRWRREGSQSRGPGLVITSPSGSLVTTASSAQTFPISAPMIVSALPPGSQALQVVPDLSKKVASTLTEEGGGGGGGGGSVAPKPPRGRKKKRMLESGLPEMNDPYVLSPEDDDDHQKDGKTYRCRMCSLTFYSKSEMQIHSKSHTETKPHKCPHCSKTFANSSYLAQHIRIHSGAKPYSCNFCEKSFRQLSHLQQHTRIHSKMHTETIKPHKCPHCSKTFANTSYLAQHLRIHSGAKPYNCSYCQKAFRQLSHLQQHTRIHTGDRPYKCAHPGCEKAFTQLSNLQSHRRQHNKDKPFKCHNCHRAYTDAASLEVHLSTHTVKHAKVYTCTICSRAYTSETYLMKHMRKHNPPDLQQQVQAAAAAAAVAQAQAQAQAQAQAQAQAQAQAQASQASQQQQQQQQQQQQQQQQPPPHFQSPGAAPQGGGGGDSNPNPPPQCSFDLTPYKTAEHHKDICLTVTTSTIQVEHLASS
UniProt Q96GY0: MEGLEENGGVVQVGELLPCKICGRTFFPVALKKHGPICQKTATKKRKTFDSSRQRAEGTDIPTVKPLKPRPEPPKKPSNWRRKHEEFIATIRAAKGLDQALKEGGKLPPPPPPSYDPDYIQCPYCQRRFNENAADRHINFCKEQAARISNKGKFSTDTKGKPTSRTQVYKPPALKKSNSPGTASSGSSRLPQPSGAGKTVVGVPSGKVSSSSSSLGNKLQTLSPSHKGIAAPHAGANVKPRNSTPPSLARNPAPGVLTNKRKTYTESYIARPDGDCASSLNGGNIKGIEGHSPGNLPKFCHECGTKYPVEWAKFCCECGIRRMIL
UniProt P61088: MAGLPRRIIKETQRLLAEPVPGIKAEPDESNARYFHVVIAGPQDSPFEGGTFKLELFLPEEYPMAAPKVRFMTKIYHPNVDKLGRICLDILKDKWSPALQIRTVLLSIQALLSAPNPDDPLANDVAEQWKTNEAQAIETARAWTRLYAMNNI
UniProt P11413, whole entry: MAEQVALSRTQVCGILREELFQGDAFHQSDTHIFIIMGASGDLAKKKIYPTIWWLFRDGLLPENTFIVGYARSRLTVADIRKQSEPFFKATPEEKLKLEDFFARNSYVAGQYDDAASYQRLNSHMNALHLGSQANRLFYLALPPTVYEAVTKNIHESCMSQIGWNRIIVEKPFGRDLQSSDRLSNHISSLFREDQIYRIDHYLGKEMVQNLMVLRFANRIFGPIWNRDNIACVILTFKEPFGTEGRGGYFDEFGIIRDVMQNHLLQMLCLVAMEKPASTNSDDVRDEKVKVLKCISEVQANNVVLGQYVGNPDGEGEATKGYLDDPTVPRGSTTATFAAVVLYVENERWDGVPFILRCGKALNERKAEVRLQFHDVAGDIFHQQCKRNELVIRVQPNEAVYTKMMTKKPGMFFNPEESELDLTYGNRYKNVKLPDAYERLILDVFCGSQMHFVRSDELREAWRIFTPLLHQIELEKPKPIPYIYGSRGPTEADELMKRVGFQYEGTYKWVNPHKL
UniProt Q9H9S5: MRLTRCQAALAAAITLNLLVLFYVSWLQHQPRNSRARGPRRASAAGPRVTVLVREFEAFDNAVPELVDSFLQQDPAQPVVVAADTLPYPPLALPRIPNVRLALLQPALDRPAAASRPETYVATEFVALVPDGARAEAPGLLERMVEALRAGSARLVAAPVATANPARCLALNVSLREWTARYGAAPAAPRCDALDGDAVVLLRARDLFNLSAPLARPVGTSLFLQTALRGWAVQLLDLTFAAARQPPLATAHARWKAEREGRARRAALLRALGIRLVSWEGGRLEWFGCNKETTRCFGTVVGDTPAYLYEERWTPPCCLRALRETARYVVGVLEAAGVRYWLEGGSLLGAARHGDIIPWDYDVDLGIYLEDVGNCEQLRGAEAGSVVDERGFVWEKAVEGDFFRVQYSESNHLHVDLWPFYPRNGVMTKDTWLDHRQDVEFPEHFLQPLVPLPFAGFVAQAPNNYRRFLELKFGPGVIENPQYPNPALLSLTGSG
UniProt Q8N5A5: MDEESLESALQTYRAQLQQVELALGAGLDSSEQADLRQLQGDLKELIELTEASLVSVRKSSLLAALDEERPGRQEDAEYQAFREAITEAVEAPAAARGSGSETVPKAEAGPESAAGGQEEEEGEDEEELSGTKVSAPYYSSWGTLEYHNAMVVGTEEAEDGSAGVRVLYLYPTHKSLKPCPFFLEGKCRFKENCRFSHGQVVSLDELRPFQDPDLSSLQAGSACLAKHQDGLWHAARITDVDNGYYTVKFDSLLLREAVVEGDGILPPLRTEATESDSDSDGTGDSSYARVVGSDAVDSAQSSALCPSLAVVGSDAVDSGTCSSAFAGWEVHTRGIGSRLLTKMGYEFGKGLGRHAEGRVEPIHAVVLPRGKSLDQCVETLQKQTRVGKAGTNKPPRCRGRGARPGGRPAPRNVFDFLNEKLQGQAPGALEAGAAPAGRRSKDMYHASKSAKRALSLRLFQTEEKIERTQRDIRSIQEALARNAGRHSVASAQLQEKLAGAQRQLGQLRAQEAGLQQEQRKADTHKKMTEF
UniProt Q8WUH2: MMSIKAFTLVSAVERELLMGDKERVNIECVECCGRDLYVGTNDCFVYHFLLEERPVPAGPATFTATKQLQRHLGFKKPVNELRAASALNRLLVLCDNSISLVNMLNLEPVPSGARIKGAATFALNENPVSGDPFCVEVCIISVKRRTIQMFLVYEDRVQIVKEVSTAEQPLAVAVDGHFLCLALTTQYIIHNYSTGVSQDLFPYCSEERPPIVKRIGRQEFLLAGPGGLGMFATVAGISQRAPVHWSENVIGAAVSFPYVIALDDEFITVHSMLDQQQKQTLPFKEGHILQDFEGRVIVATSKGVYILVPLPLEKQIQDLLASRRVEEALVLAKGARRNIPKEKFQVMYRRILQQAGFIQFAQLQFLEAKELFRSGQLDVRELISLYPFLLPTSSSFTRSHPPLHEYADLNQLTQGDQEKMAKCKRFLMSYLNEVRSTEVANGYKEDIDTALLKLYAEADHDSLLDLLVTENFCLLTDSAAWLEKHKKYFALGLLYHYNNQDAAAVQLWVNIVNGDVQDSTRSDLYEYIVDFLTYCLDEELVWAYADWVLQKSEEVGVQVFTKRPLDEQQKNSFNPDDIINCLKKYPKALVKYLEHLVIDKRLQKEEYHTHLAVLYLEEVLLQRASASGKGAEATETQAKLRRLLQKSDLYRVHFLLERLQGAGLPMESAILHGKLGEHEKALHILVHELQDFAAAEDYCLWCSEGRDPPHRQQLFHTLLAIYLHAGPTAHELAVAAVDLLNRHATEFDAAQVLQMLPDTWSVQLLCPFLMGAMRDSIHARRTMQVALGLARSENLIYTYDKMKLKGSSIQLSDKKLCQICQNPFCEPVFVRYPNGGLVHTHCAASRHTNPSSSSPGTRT
UniProt Q86U44, whole entry: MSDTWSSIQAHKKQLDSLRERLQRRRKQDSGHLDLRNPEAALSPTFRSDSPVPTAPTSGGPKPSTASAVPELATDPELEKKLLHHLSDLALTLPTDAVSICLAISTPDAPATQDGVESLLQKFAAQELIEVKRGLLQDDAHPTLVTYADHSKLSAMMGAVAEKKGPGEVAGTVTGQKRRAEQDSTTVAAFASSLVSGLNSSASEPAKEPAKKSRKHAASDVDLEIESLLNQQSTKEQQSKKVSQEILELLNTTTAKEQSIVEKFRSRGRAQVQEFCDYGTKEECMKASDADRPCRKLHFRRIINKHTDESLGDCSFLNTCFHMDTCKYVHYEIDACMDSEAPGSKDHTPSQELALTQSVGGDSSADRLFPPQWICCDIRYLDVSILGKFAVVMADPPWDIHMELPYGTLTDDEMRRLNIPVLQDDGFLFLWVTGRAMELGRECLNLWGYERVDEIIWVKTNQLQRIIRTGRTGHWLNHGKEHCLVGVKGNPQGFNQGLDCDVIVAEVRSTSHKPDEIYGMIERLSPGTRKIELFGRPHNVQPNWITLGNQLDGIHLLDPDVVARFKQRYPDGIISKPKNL
UniProt Q86UE8, whole entry, looked up: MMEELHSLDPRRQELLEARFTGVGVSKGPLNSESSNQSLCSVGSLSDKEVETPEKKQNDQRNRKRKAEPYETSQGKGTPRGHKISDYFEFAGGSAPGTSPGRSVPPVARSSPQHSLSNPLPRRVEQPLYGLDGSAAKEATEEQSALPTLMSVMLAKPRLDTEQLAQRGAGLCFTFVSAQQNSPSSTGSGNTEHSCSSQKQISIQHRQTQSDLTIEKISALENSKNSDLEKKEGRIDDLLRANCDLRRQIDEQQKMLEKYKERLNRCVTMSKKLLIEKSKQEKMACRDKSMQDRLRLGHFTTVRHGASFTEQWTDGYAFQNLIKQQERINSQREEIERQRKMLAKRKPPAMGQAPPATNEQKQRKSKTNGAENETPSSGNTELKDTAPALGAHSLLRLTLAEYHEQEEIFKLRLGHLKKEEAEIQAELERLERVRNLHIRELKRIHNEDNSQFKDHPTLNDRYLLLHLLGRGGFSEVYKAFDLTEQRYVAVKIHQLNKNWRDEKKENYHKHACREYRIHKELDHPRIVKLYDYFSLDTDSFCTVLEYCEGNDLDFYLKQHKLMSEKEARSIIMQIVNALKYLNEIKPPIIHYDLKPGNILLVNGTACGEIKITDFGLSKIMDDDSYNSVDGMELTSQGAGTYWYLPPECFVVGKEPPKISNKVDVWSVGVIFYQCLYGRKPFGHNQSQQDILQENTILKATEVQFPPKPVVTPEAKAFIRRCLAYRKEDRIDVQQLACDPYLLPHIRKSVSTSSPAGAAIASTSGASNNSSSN
UniProt Q9HAU6: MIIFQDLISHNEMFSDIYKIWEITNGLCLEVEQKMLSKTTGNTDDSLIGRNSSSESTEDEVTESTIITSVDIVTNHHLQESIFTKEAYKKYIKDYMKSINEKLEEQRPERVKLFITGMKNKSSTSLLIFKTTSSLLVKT
UniProt P0DMU8: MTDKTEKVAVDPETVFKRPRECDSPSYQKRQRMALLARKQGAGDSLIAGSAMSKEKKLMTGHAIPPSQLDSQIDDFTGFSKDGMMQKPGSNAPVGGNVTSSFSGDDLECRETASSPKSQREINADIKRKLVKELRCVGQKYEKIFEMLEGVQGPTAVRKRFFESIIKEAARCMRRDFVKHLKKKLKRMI

Compound in this test: [O-][N+](C(C1=C(C(O)=C2)NC(C(C=C3)=CC=C3Cl)C4C1C=CC4)=C2Cl)=O
In words: melting temperature shift (compound 7 minus DMSO); higher = compound stabilises the protein. To be noted: 10 µM. The procedure:
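Thermal proteome profiling (TMT mass spectrometry) in intact DAOY medulloblastoma cells or DAOY lysates treated with 10 µM compound 7 or DMSO, heated at 10 temperatures from 40.5 to 73.8 °C for 3 min. Melting curves were fitted with the Bioconductor TPP package, and the melting point difference between compound and vehicle is reported per protein (single curve per condition).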

Setting [1] is: system: DAOY cell lysate, treatment time: 20 min, 4 °C.
Where [2] appears, read: system: intact DAOY cells, treatment time: 90 min, 37 °C.

Repeats are few or missing, and single values can be far off.

For the target UniProt B7ZAP0, the melting temperature shift under setting [1] was -0.441 °C.

Turning to NUSAP1 (UniProt Q9BXS6), the melting temperature shift is, setting by setting: under setting [1], 0.26 °C; under setting [2], 0.672 °C.

Consider UniProt Q86X51, for which the melting temperature shift by setting is: under setting [1], -0.338 °C; under setting [2], 0.356 °C.

ARHGDIB (UniProt P52566): the melting temperature shift by setting is: under setting [1], -0.714 °C; under setting [2], 0.221 °C.

With UniProt Q15139, the melting temperature shift under setting [1] came to 0.166 °C.

As for TOP2B (UniProt Q02880), the melting temperature shift under setting [1] was determined as 1.89 °C and the melting temperature shift under setting [2] is -0.399 °C.

For DDB2 (UniProt Q92466), the melting temperature shift under setting [2] was -0.111 °C.

On to TRIM32 (UniProt Q13049), for which the melting temperature shift under setting [1] is -1.44 °C and the melting temperature shift under setting [2] came to 0.345 °C.

Take UniProt P52815: the melting temperature shift under setting [1] was -1.62 °C and the melting temperature shift under setting [2] is -0.0312 °C.

With UniProt O00398, the melting temperature shift under setting [1] is -1.59 °C.

Regarding UniProt Q92599, the melting temperature shift under setting [1] was -0.869 °C and the melting temperature shift under setting [2] is -1.77 °C.

Take CELF1 (UniProt Q92879): the melting temperature shift by setting is: under setting [1], 1.67 °C; under setting [2], -0.104 °C.

CNNM4 (UniProt Q6P4Q7): under setting [2], the melting temperature shift is 1.56 °C.

For UniProt Q13188, the melting temperature shift by setting is: under setting [1], -0.0389 °C; under setting [2], -0.347 °C.

As to HERC1 (UniProt Q15751), the melting temperature shift under setting [1] was determined as 0.13 °C and the melting temperature shift under setting [2] was -0.232 °C.

In the case of ZNF384 (UniProt Q8TF68), the melting temperature shift is 1.22 °C under setting [1] and -0.112 °C under setting [2].

Take R3HDM1 (UniProt Q15032): under setting [1], the melting temperature shift was -0.12 °C.

For UniProt P19532, the melting temperature shift is, setting by setting: under setting [1], -0.121 °C; under setting [2], -2 °C.

With LCMT1 (UniProt Q9UIC8), the melting temperature shift runs as follows: under setting [1], -0.454 °C; under setting [2], -0.524 °C.

ZC2HC1A (UniProt Q96GY0): the melting temperature shift runs as follows: under setting [1], 0.216 °C; under setting [2], -1.73 °C.

Take RPS15 (UniProt P62841): the melting temperature shift was -0.132 °C under setting [1] and -0.863 °C under setting [2].

With DNAJB2 (UniProt P25686), the melting temperature shift runs as follows: under setting [1], -1.74 °C; under setting [2], 0.452 °C.

For LSS (UniProt P48449), the melting temperature shift was 1.09 °C under setting [1] and -0.332 °C under setting [2].

Consider UniProt Q96SL4, for which, under setting [1], the melting temperature shift was -1.26 °C.

For the target UBE2N (UniProt P61088), the melting temperature shift under setting [1] was -0.759 °C and the melting temperature shift under setting [2] is -0.256 °C.

In the case of TCEB2 (UniProt Q15370), the melting temperature shift reads like this: under setting [1], -0.5 °C; under setting [2], 0.345 °C.

GGH (UniProt Q92820): the melting temperature shift under setting [1] was -0.996 °C and the melting temperature shift under setting [2] is -1.26 °C.

For FNBP4 (UniProt Q8N3X1), under setting [1], the melting temperature shift came out at 1.71 °C.

Consider UniProt Q9ULC5, for which, under setting [2], the melting temperature shift is -0.785 °C.

As for UniProt Q9UGH3, the melting temperature shift under setting [2] came to 7.2 °C.

For the target RPL30 (UniProt P62888), the melting temperature shift by setting is: under setting [1], -1.17 °C; under setting [2], -0.227 °C.

As for G6PD (UniProt P11413), the melting temperature shift reads like this: under setting [1], -0.319 °C; under setting [2], -0.546 °C.

In the case of CYR61 (UniProt O00622), the melting temperature shift under setting [1] is 1.2 °C and the melting temperature shift under setting [2] amounted to 1.3 °C.

Turning to TCF3 (UniProt P15923), the melting temperature shift under setting [1] is 0.628 °C.

UniProt Q9H9S5: the melting temperature shift by setting is: under setting [1], 1.29 °C; under setting [2], 1.17 °C.

With UniProt Q6IS14, the melting temperature shift under setting [2] was -0.0724 °C.

Consider SLC9A3R1 (UniProt O14745), for which, under setting [1], the melting temperature shift is -0.535 °C.

Take UniProt Q92901: the melting temperature shift under setting [2] was -0.587 °C.

PRC1 (UniProt O43663): the melting temperature shift is, setting by setting: under setting [1], 0.409 °C; under setting [2], -1.24 °C.

For the target GART (UniProt P22102), the melting temperature shift reads like this: under setting [1], -0.583 °C; under setting [2], 0.326 °C.

On to ZGPAT (UniProt Q8N5A5), for which the melting temperature shift is 1.33 °C under setting [1] and 1.2 °C under setting [2].

With QRICH1 (UniProt Q2TAL8), the melting temperature shift is, setting by setting: under setting [1], -0.953 °C; under setting [2], 1.29 °C.

PSME1 (UniProt Q06323): the melting temperature shift under setting [1] is -1.38 °C.

With UniProt Q9H6R7, the melting temperature shift under setting [1] is -0.612 °C.

For RPL26L1 (UniProt Q9UNX3), the melting temperature shift is 1.37 °C under setting [1] and -0.993 °C under setting [2].

As to DNPEP (UniProt Q9ULA0), the melting temperature shift was -0.868 °C under setting [1] and -2.36 °C under setting [2].

With TGFBRAP1 (UniProt Q8WUH2), under setting [1], the melting temperature shift was 2.08 °C.

In the case of YWHAH (UniProt Q04917), the melting temperature shift came to 0.11 °C under setting [1] and 0.294 °C under setting [2].

EIF3D (UniProt O15371): the melting temperature shift by setting is: under setting [1], -0.0967 °C; under setting [2], -0.033 °C.

As for METTL3 (UniProt Q86U44), the melting temperature shift runs as follows: under setting [1], -1.21 °C; under setting [2], 0.35 °C.

In the case of HAUS6 (UniProt Q7Z4H7), the melting temperature shift runs as follows: under setting [1], -0.366 °C; under setting [2], -2.39 °C.

In the case of UniProt Q9UGI9, the melting temperature shift under setting [2] is -1.56 °C.

As to UniProt Q5VZF2, the melting temperature shift was -1.29 °C under setting [1] and -0.547 °C under setting [2].

As for STEAP3 (UniProt Q658P3), the melting temperature shift is, setting by setting: under setting [1], 1.8 °C; under setting [2], -0.373 °C.

As to TLK2 (UniProt Q86UE8), under setting [1], the melting temperature shift was -0.604 °C.

UniProt Q9HAU6: the melting temperature shift under setting [2] was found to be 0.674 °C.

For the target SPECC1 (UniProt Q5M775), the melting temperature shift worked out at 0.903 °C under setting [1] and 0.246 °C under setting [2].

Consider C7ORF50 (UniProt Q9BRJ6), for which the melting temperature shift by setting is: under setting [1], 0.226 °C; under setting [2], 1.42 °C.

Regarding RBM6 (UniProt P78332), the melting temperature shift reads like this: under setting [1], 1.48 °C; under setting [2], -0.369 °C.

As for P0DMU7 (UniProt P0DMU8), the melting temperature shift under setting [1] turned out to be 1.6 °C.

As to PLOD2 (UniProt O00469), the melting temperature shift runs as follows: under setting [1], 0.0577 °C; under setting [2], 0.699 °C.

Turning to RAB23 (UniProt Q9ULC3), the melting temperature shift was -0.283 °C under setting [1] and -0.564 °C under setting [2].

UniProt A6NFN3: under setting [2], the melting temperature shift is -0.63 °C.

With MYOF (UniProt Q9NZM1), the melting temperature shift by setting is: under setting [1], 1.38 °C; under setting [2], 0.157 °C.

On to UniProt Q8N1Q1, for which the melting temperature shift under setting [2] was -1.44 °C.

On to UniProt Q07817, for which the melting temperature shift is 2.03 °C under setting [1] and -1.06 °C under setting [2].

For the target FAM234A (UniProt Q9H0X4), the melting temperature shift is 2.15 °C under setting [1] and -4.11 °C under setting [2].

Consider SNRPF (UniProt P62306), for which the melting temperature shift under setting [1] is -1.07 °C and the melting temperature shift under setting [2] was -0.403 °C.

As to UniProt P50281, the melting temperature shift by setting is: under setting [1], 1.85 °C; under setting [2], 0.267 °C.
